Results from patent publication US7342004B2, “Thioether sulphamate steroids as steroid inhibitors and anti-cancer compounds” (Sterix Ltd., priority 2000, dated 2008).
Some results were stated once for a whole list of compounds, not compound by compound.

Molecular target: CuZnSOD (UniProt P00442)
Assay: Superoxide dismutase (SOD) spectrophotometric XTT assay, Protocol 1
Format: biochemical
Settings: xanthine oxidase/XTT, 24° C., 30 minutes, read-out: IC 50/μM (+/− SEM) SOD Inhibition

For “estrone-3-O-sulphamate [Compound 24, reference compound]”, the IC50 was > 100 µM.
